Results as given in publication PMC1079803.
These are yes or no findings as the source states them, for the method shown.

Assays:
[1] = target: T1, rab2 S20N (UniProt P61019); experiment: two-hybrid; co-transformation of bait (pAS2-1) and prey (pGADT7) constructs in yeast Y190; plates lacking Trp, Leu and His with 50 mM 3-aminotriazol (his3), 30°C for 5-7 days; β-galactosidase filter lift with X-gal (lacZ)
T1 sequence: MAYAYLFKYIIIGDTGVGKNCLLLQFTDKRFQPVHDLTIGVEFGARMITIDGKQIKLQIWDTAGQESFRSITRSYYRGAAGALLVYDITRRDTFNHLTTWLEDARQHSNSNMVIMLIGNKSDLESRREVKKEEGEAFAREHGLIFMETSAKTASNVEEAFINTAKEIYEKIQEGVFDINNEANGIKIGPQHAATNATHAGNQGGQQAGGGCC

[2] = target: T2, rab6 Q72R (UniProt P20340); experiment: as above
T2 sequence: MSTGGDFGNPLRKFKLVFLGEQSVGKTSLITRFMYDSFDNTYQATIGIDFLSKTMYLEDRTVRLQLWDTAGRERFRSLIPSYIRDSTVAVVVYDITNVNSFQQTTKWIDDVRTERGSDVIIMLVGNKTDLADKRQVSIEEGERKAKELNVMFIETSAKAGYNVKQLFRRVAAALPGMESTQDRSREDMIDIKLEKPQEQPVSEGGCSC

Iporin ΔN847 (human) (domain or fragment)
binding [1]: no binding
binding [2]: no binding
